Some of the results follow.
B1: il10ra_site1_normal_mot_HHH_b2_07144_000000289_0001_1_18_H_._HHH_b1_08187_0001_0000200013_0000001_0 (protein)
chain: SSSSDESQELYKISREIAELLRNGNPEEARELLEELKELAEERNNPIIEAAVRALERALKSSSSS
B2: il10ra_site1_sap_20_mot_HHH_b2_00479_000000091_0001_1_12_H_._HHH_b2_03507_af2_0001_0000700033_0000001_1_0001_af2pred_dldesign_0_af2pred (protein)
chain: SSSSDPEAELEELLAQLKAAGDADAVANVERLKELAEKEKNPELLRLANLYAKYALEAKKSSSSS
B3: il10ra_site1_normal_mot_HHH_b2_07488_000000216_0001_1_17_H_._20bd334181f53d5e88893876e50d2750_0001_af2_0001_0000100001_0000002_0 (protein)
chain: DPEVKEVLEEVKEKFKDDPKARLAVRFAEALLEAGNPEAALSLLRQLAQALGDPELLEKVEELLK
B4: il10ra_site1_normal_mot_HHH_b2_03220_af2_000000223_0001_23_40_H_._HHH_b2_07925_0001_0000200018_0000002_0 (protein)
chain: SSSSDDENEEIWRLLRELLELLFEGDEEQLEELLKEIEKLIEEANSEVFRFSLRAVKKALSSSSS
B5: il10ra_site1_normal_mot_HHH_b1_02397_af2_000000085_0001_39_57_H_._HHH_b2_02616_af2_0001_0000500019_0000002_0 (protein)
chain: SSSSDAEERLKELLEELEELLEEGDRERFARVAQEILRLAFELGDEEALRIVWELVQALYSSSSS
B6: il10ra_site1_sap_23_mot_HHH_b1_08616_000000009_0001_1_19_H_._HHH_b2_04715_af2_0001_0000100004_0000001_0_0001 (protein)
chain: SSSSSDQEEQLIRALLWFAEWTSNPTARRLMLEQAERHARELGNEELREEVERVEKELEESSSSS
B7: il10ra_site1_normal_mot_HHH_b1_00992_000000182_0001_23_40_H_._HHH_b1_04461_0001_0000500022_0000001_0 (protein)
chain: SSSSSSEYLELSLRFAKALLRSGDPEAARRILEAAIQIAEREGDPELLEQLEELLEEIENSSSSS
B8: il10ra_site1_normal_mot_7f9b3cf633cfd27bca007b62ade1be3b_0001_1_000000138_0001_17_32_H_._HHH_b2_08183_0001_0000100015_0000001_0 (protein)
chain: SSSSSEAEITLRFLILSLEIAEELNDEEQLRAALRFLESLAKEANDEEAQEVVEEIRERFSSSSS
B9: il10ra_site1_normal_mot_HHH_b2_03038_000000109_0001_1_20_H_._HHH_b2_04520_0001_0000200024_0000001_0 (protein)
chain: SSSSDEAEELYKLSREINELIREGDDEEARELLEEARELAEEAGNENFRHILEFLKRLLESSSSS
B10: il10ra_site1_normal_mot_HHH_b1_05860_000000142_0001_1_19_H_._HHH_b1_05723_0001_0000200010_0000002_0 (protein)
chain: SSSSDSEEIYRLLREVLELLDEGDQEEAEKLIEEIRRLIEEAGNFVAEFALRLIEQDLEYRSSSS
B11: il10ra_site1_normal_mot_HHH_b2_03183_af2_000000055_0001_40_56_H_._HHH_b2_03444_0001_0000300011_0000002_1 (protein)
chain: SSSSSSTEEELLRAALRLLEQAPDPETRRALEIAIEILAREVGDEEVEEELERLREELSSSSSSS
B12: il10ra_site1_normal_mot_HHH_b1_06914_000000280_0001_1_18_H_._HHH_b1_05152_0001_0000100003_0000001_0 (protein)
chain: SSSSSDETEEIYELSRKALEIRKEDPEEAKELLERALELAEEINSFALAFAVRLALEDLSSSSSS
B13: il10ra_site1_sap_21_mot_HHH_b1_04771_000000013_0001_40_56_H_._HHH_b2_04143_af2_0001_0000300004_0000002_0_0001_af2pred_0001 (protein)
chain: SSSSDKVVERVIKLLREALRLAREGNPEEAEKLLEEAQELAEENNDEYLERVIKFAEHALRSSSS
B14: il10ra_site1_normal_mot_HHH_b2_07540_000000184_0001_1_15_H_._HHH_b1_07591_af2_0001_0000600016_0000001_0 (protein)
chain: SSSSDAEEIVEEAEEELRRLLEEGDPDEAYRVLKEAIQLLAELGNPELARELSRYFLELLSSSSS
B15: il10ra_site1_normal_mot_e933875d0a4b1ebfe8e667f01481c16a_0001_1_af2_000000222_0001_49_63_H_._HHH_b2_03305_0001_0000100007_0000001_0_af2pred_0001 (protein)
chain: SSSSSSKAERLYELSREAIELLRKGNPEEAEKLLEEAEELAEEANDLNSLVVIEFILKRVSSSSS
B16: il10ra_site1_normal_mot_HHH_b1_01879_000000050_0001_1_18_H_._HHH_b2_08350_0001_0000200021_0000001_0_af2pred_dldesign_0_af2pred (protein)
chain: SSSSDLEKEVWDKLVEIYRLLQAGKPEEARELLEELRALAEATKNAKALRRVEAAEIFMKESSSS
B17: il10ra_site1_sap_18_mot_HHH_b1_06789_af2_000000041_0001_1_20_H_._HHH_b2_02597_af2_0001_0000400018_0000001_0_0001 (protein)
chain: SSSSSEEHEELYRLLRAVVELDLDGDPEEAREVLEEVREIAEEANDQLFLRQVEFLLKLLDSSSS
B18: il10ra_site1_normal_mot_HHH_b1_04771_000000013_0001_40_56_H_._HHH_b2_02427_0001_0000300022_0000001_0 (protein)
chain: SSSSSDREEVLKLSQEAFRLALRGNPEEARKVLEEALELAEELGNERAARVIKDLLEVLNSSSSS

biological target: il10ra, Q13651; experiment: yeast display titration

Row | Binder | apparent Kd
1 | B1 | inactive: no binding seen
2 | B2 | inactive: no binding seen
3 | B3 | inactive: no binding seen
4 | B4 | inactive: no binding seen
5 | B5 | inactive: no binding seen
6 | B6 | inactive: no binding seen
7 | B7 | inactive: no binding seen
8 | B8 | inactive: no binding seen
9 | B9 | inactive: no binding seen
10 | B10 | inactive: no binding seen
11 | B11 | inactive: no binding seen
12 | B12 | inactive: no binding seen
13 | B13 | inactive: no binding seen
14 | B14 | inactive: no binding seen
15 | B15 | inactive: no binding seen
16 | B16 | inactive: no binding seen
17 | B17 | inactive: no binding seen
18 | B18 | inactive: no binding seen

Reference: article PMC10163288
